According to patent publication US20040202659A1:
These are yes or no findings as the source states them, for the method shown. Some entries that bind do so weakly or less than the wild type.

Assays:
Assay in all cases: specificity assay
PDG7 = biological target: PDG7
PDG8 = biological target: PDG8
PDG10 = biological target: PDG10
PDG-A = biological target: PDG-A
PDG16 = biological target: PDG16

Measured: binding

B1: AI-X16 (Fab, V domains shown)
VH: QVKLLESGGGLVHPGGSLRLSCAASGFTFDNFAMSWVRQAPGKGLEWVSGISGGGLLTHYADSVKGRFTISRNNSRNTVYLQMNSLRAEDTAVYYCVRDLGYRVLSTFTFDIWGQGTKVTVSS
VL: VVTQPASVSGSPGQSITISCTGTSSAIGNYNFVPWYQQHPGKAPKLMIYEGSKRPSGVSNRFSGSKSGNTASLTISGLQAEDEAEYYCCSYVHSSTNWVFGGGTKLTVLG
binds: all assays above

B2: AI-X24 (Fab, V domains shown)
VH: B1 VH
VL: B1 VL
binds: all assays above
